The record followed here is the supplement of paper PMC10973195.

± gives the standard deviation of the averaged measurements. Some of the results follow. Values are raw readings; no control value is given beside them.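 The test system is a mixed culture of neurons, microglia and astrocytes in which bacterial LPS triggers microglia-driven neuron loss, modelling inflammatory neurodegeneration. Each compound was compared with vehicle (DMSO) wells on the same plates, and the SYK inhibitor BAY61-3606 served as the reference neuroprotective control.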

Conditions in all cases: 1 µM, treatment time 3 days
Assay [1] concerns rat primary cerebellar neuron-glia coculture. The assay is described as follows: microglia count (IB4+) per image field (cells per field); higher = more microglia.
The test system is the same in assay [2]. The experiment in a line: necrotic cell count (DRAQ7+) per image field (cells per field); higher = more necrosis.
Assay [3] shares this test system. The experiment in a line: live neuron count (NeuO+) per image field (cells per field); higher = more surviving neurons.
Assay [4] shares this test system. The assay is described as follows: median microglial FormFactor (circularity) per image (dimensionless (0-1)); higher = rounder, more ameboid microglia.

Take `COc1cc2c(cc1OCCCN1CCCC1)N=C(N)C21CCC1`: the microglia count in assay [1] (LPS 0 ng/mL) was determined as 280 ± 350; in assay [1] (LPS 100 ng/mL), 441 ± 110. Moreover, the necrotic cell count in assay [2] (LPS 0 ng/mL) turned out to be 72.1 ± 32; in assay [2] (LPS 100 ng/mL), 1000 ± 410. Also, the live neuron count in assay [3] (LPS 0 ng/mL) was 2280 ± 740; in assay [3] (LPS 100 ng/mL), 265 ± 250. Besides, the figures for the “median microglial FormFactor” value in assay [4] (LPS 0 ng/mL) and in assay [4] (LPS 100 ng/mL) were 0.521 ± 0.077 and 0.655 ± 0.08, respectively.

Consider `CN1[C@@H](CC(=O)c2ccccc2)CCC[C@H]1C[C@H](O)c1ccccc1`, for which the results for the microglia count in assay [1] (LPS 0 ng/mL) and in assay [1] (LPS 100 ng/mL) were 326 ± 470 and 455 ± 81, respectively. Further, the figures for the necrotic cell count in assay [2] (LPS 0 ng/mL) and in assay [2] (LPS 100 ng/mL) were 65 ± 18 and 855 ± 390, respectively. The live neuron count was found to be 2400 ± 710 in assay [3] (LPS 0 ng/mL) and 579 ± 590 in assay [3] (LPS 100 ng/mL). Further, the “median microglial FormFactor” value in assay [4] (LPS 0 ng/mL) was 0.529 ± 0.068; in assay [4] (LPS 100 ng/mL), 0.664 ± 0.071.

For the compound `Fc1ccc(C(c2ccc(F)cc2)N2CCN(C/C=C/c3ccccc3)CC2)cc1`, the results for the microglia count in assay [1] (LPS 0 ng/mL) and in assay [1] (LPS 100 ng/mL) were 174 ± 68 and 484 ± 68, respectively. The figures for the necrotic cell count in assay [2] (LPS 0 ng/mL) and in assay [2] (LPS 100 ng/mL) were 280 ± 110 and 470 ± 160, respectively. For the same compound, the figures for the live neuron count in assay [3] (LPS 0 ng/mL) and in assay [3] (LPS 100 ng/mL) were 822 ± 370 and 898 ± 490, respectively. Also, the results for the “median microglial FormFactor” value in assay [4] (LPS 0 ng/mL) and in assay [4] (LPS 100 ng/mL) were 0.631 ± 0.048 and 0.533 ± 0.043, respectively.

With `O=C(O)CC(CC(=O)Nc1ccc(Oc2ccc(Cl)cc2)cc1)c1ccccc1` (centres undefined), the microglia count is 170 ± 66 in assay [1] (LPS 0 ng/mL) and 447 ± 130 in assay [1] (LPS 100 ng/mL). Besides, the values for the necrotic cell count in assay [2] (LPS 0 ng/mL) and in assay [2] (LPS 100 ng/mL) were 89.8 ± 38 and 809 ± 420, respectively. Besides, the live neuron count was 2710 ± 500 in assay [3] (LPS 0 ng/mL) and 877 ± 930 in assay [3] (LPS 100 ng/mL). Besides, the “median microglial FormFactor” value in assay [4] (LPS 0 ng/mL) stood at 0.547 ± 0.078; in assay [4] (LPS 100 ng/mL), 0.583 ± 0.1.

In the case of `CC(C)(C#N)c1cc(Cn2cncn2)cc(C(C)(C)C#N)c1`, the microglia count was determined as 119 ± 11 in assay [1] (LPS 0 ng/mL) and 590 ± 79 in assay [1] (LPS 100 ng/mL). For the same compound, the live neuron count in assay [3] (LPS 0 ng/mL) turned out to be 2530 ± 780; in assay [3] (LPS 100 ng/mL), 2680 ± 550. The “median microglial FormFactor” value in assay [4] (LPS 0 ng/mL) worked out at 0.758 ± 0.076; in assay [4] (LPS 100 ng/mL), 0.496 ± 0.051.

With `CC1Cc2ccccc2N1NC(=O)c1ccc(Cl)c(S(N)(=O)=O)c1` (centres undefined), the values for the microglia count in assay [1] (LPS 0 ng/mL) and in assay [1] (LPS 100 ng/mL) were 163 ± 44 and 446 ± 80, respectively. Further, the necrotic cell count in assay [2] (LPS 0 ng/mL) is 80.6 ± 29; in assay [2] (LPS 100 ng/mL), 792 ± 320. Besides, the live neuron count in assay [3] (LPS 0 ng/mL) was determined as 2610 ± 410; in assay [3] (LPS 100 ng/mL), 668 ± 960. For the same compound, the “median microglial FormFactor” value in assay [4] (LPS 0 ng/mL) is 0.532 ± 0.063; in assay [4] (LPS 100 ng/mL), 0.663 ± 0.082.

As to `CC1(C)C[C@@H](CN2CCC(F)(CNC(=O)c3cc(Cl)cc(Cl)c3)CC2)CCO1`, the microglia count in assay [1] (LPS 0 ng/mL) stood at 163 ± 28; in assay [1] (LPS 100 ng/mL), 416 ± 50. Also, the results for the necrotic cell count in assay [2] (LPS 0 ng/mL) and in assay [2] (LPS 100 ng/mL) were 85.6 ± 29 and 967 ± 300, respectively. The live neuron count was determined as 2700 ± 640 in assay [3] (LPS 0 ng/mL) and 432 ± 420 in assay [3] (LPS 100 ng/mL). Moreover, the “median microglial FormFactor” value in assay [4] (LPS 0 ng/mL) stood at 0.536 ± 0.072; in assay [4] (LPS 100 ng/mL) it was 0.632 ± 0.066.

On to `c1ccc(C2=NCCN2)cc1`, for which the microglia count in assay [1] (LPS 0 ng/mL) stood at 164 ± 58; in assay [1] (LPS 100 ng/mL), 465 ± 100. For the same compound, the necrotic cell count came to 78.2 ± 23 in assay [2] (LPS 0 ng/mL) and 825 ± 230 in assay [2] (LPS 100 ng/mL). The live neuron count in assay [3] (LPS 0 ng/mL) was determined as 2550 ± 450; in assay [3] (LPS 100 ng/mL), 458 ± 430. Further, the “median microglial FormFactor” value in assay [4] (LPS 0 ng/mL) was 0.527 ± 0.077; in assay [4] (LPS 100 ng/mL) it was 0.652 ± 0.064.

For the compound `C#Cc1cccc(Nc2ncnc3cc(OCCOC)c(OCCOC)cc23)c1`, the results for the microglia count in assay [1] (LPS 0 ng/mL) and in assay [1] (LPS 100 ng/mL) were 165 ± 55 and 476 ± 97, respectively. Further, the necrotic cell count was found to be 91.6 ± 31 in assay [2] (LPS 0 ng/mL) and 801 ± 440 in assay [2] (LPS 100 ng/mL). The live neuron count in assay [3] (LPS 0 ng/mL) amounted to 2670 ± 440; in assay [3] (LPS 100 ng/mL), 641 ± 760. Besides, the “median microglial FormFactor” value in assay [4] (LPS 0 ng/mL) amounted to 0.512 ± 0.091; in assay [4] (LPS 100 ng/mL), 0.622 ± 0.1.

With `COc1cc2c(N3CCN(C(=O)Nc4ccc(OC(C)C)cc4)CC3)ncnc2cc1OCCCN1CCCCC1`, the results for the microglia count in assay [1] (LPS 0 ng/mL) and in assay [1] (LPS 100 ng/mL) were 146 ± 67 and 411 ± 66, respectively. For the same compound, the figures for the necrotic cell count in assay [2] (LPS 0 ng/mL) and in assay [2] (LPS 100 ng/mL) were 119 ± 31 and 967 ± 260, respectively. Also, the live neuron count in assay [3] (LPS 0 ng/mL) stood at 2770 ± 460; in assay [3] (LPS 100 ng/mL), 566 ± 870. For the same compound, the “median microglial FormFactor” value was determined as 0.51 ± 0.076 in assay [4] (LPS 0 ng/mL) and 0.647 ± 0.076 in assay [4] (LPS 100 ng/mL).

`Cc1ccc(-n2cnc3c(sc4nccc(N(C)C)c43)c2=O)cc1`: the values for the microglia count in assay [1] (LPS 0 ng/mL) and in assay [1] (LPS 100 ng/mL) were 168 ± 51 and 416 ± 74, respectively. Further, the values for the necrotic cell count in assay [2] (LPS 0 ng/mL) and in assay [2] (LPS 100 ng/mL) were 83.4 ± 31 and 1020 ± 400, respectively. Besides, the live neuron count in assay [3] (LPS 0 ng/mL) worked out at 2550 ± 330; in assay [3] (LPS 100 ng/mL), 412 ± 660. For the same compound, the “median microglial FormFactor” value amounted to 0.538 ± 0.078 in assay [4] (LPS 0 ng/mL) and 0.679 ± 0.082 in assay [4] (LPS 100 ng/mL).

For the compound `O=C(O)c1ccc(NC(=O)[C@H](CC2CCCC2)n2cnc(C(F)(F)F)c2)nc1`, the microglia count in assay [1] (LPS 0 ng/mL) amounted to 177 ± 53; in assay [1] (LPS 100 ng/mL), 436 ± 80. Further, the results for the necrotic cell count in assay [2] (LPS 0 ng/mL) and in assay [2] (LPS 100 ng/mL) were 87.6 ± 36 and 1010 ± 400, respectively. Moreover, the live neuron count in assay [3] (LPS 0 ng/mL) turned out to be 2710 ± 560; in assay [3] (LPS 100 ng/mL) it was 478 ± 600. Further, the “median microglial FormFactor” value was 0.557 ± 0.087 in assay [4] (LPS 0 ng/mL) and 0.631 ± 0.089 in assay [4] (LPS 100 ng/mL).
